PubChem BioAssay AID504764 | Drosophila RNAi Screening Center – 2011

Screen: 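Genome-wide screen for regulators of Notch-driven gene expression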 (primary screen)
System: Drosophila Kc167 cells
Knock-down reagent: long dsRNA against Drosophila genes
Time to read-out: about 5 days (4 days dsRNA, then 24 h after transfection)
Treatment: transfection of constitutively active membrane-tethered Notch lacking the extracellular domain, read 24 h later
Detection: 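Light from a Notch-responsive E(spl)m3 luciferase reporter under active Notch, with control-promoter and no-Notch reporter wells to normalise; raw counts from paired wells a and b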
Scale: induced reporter light, run 1, well a and induced reporter light, run 1, well b: higher = more light from the Notch target reporter with active Notch; control promoter light, run 1, well a and control promoter light, run 1, well b: higher = more light from the viral control promoter (cell number, transfection, viability); uninduced reporter light, run 1, well a: higher = more light from the Notch target reporter without active Notch
Rule for the call: 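Wells with low control signal or poorly matching duplicates excluded; duplicates averaged; per source plate, z beyond ±2 for induced/control log2 ratio or beyond ±1.8 for induced/uninduced marks a hit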
Calls: active = modifier hit (raised or lowered Notch signal); inactive = not a hit
In all, the deposit lists about 22,000 reagents; this is a random part of those with a known target gene and a result. In the full data, 403 (1.9%) are marked active. 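Unnormalised raw counts per well; ratio z-scores behind the hit calls and whether each hit raises or lowers signal are not deposited.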 A plus sign joins genes that one reagent is predicted to hit. Not stated in the record: the amount of reagent.

no.	predicted target	dsRNA	induced reporter light, run 1, well a	induced reporter light, run 1, well b	control promoter light, run 1, well a	control promoter light, run 1, well b	uninduced reporter light, run 1, well a	call
1	Spec2 (retired record)	DRSC12258	55495	42445	47995	45665	4610	inactive
2	CG31538	DRSC12059	1.66e5	1.22e5	1.96e5	1.44e5	12380	inactive
3	blow (blown fuse)	DRSC07586	2.37e5	2.14e5	2.53e5	2.43e5	17145	inactive
4	Tango8 (Transport and Golgi organization 8)	DRSC06474	21675	10490	12650	15540	4700	inactive
5	CG14007	DRSC02339	1.51e5	1.20e5	1.48e5	1.40e5	11105	inactive
6	Uba3 (Ubiquitin-like activating enzyme 3)	DRSC06377	1.45e5	1.38e5	1.65e5	1.81e5	14525	inactive
7	Nf-YA (Nuclear factor Y-box A)	DRSC10385	21375	24940	25635	19650	3160	inactive
8	sqa (spaghetti-squash activator)	DRSC06693	2.56e5	1.68e5	1.94e5	1.48e5	17070	inactive
9	CG5953	DRSC01546	54855	63040	72290	69495	4510	inactive
10	CG5953	DRSC02914	8635	8420	12635	10275	3080	inactive
11	AkhR (Adipokinetic hormone receptor)	DRSC03329	1.37e5	1.63e5	1.68e5	1.86e5	14615	inactive
12	CG42286 (retired record)	DRSC14357	32775	28735	34410	21300	4405	inactive
13	qless	DRSC15103	1.66e5	1.91e5	2.41e5	2.74e5	15435	inactive
14	qless	DRSC15507	1.23e5	1.25e5	2.04e5	1.70e5	10382	inactive
15	Rab3GAP1 (RAB3 GTPase activating protein subunit 1)	DRSC00291	1.05e5	90585	77710	52590	7990	inactive
16	Rab3GAP1 (RAB3 GTPase activating protein subunit 1)	DRSC00703	1.27e5	1.15e5	1.02e5	68770	10835	inactive
17	CG31787	DRSC01632	77355	67445	86445	63825	6815	inactive
18	Shawn + Tyler	DRSC19564	1.22e5	1.10e5	1.24e5	65985	9815	inactive
19	Shawn + Tyler	DRSC19565	72145	74580	90595	94735	9780	inactive
20	p130CAS + Dic61B	DRSC08588	43555	43475	68220	73650	3700	inactive
21	U4-U6-60K (U4-U6 small nuclear riboprotein factor 60K)	DRSC10624	1.18e5	1.08e5	60975	61215	6390	inactive
22	CG30103	DRSC06894	1.54e5	1.06e5	1.56e5	1.67e5	9670	inactive
23	CG6567	DRSC16066	59695	60285	79700	53370	6475	inactive
24	CG33459	DRSC05615	95155	82495	1.29e5	1.25e5	7275	inactive
25	CG15347	DRSC18031	1.31e5	1.43e5	2.55e5	2.36e5	9945	inactive
26	CG4744	DRSC06887	1.36e5	1.42e5	1.56e5	1.56e5	12110	inactive
27	TM9SF2 (Transmembrane 9 superfamily protein member 2)	DRSC03197	2.08e5	2.35e5	1.72e5	1.75e5	15915	inactive
28	CG31140	DRSC13649	1.72e5	1.63e5	1.71e5	2.49e5	15405	inactive
29	CG31140	DRSC14603	1.70e5	1.74e5	2.32e5	2.44e5	14780	inactive
30	CG31140	DRSC15904	1.61e5	1.60e5	1.73e5	1.84e5	10665	inactive
31	Gclm (Glutamate-cysteine ligase modifier subunit)	DRSC15677	99720	1.06e5	1.25e5	1.03e5	10555	inactive
32	CG5188	DRSC02826	1.17e5	1.28e5	68195	1.04e5	18995	inactive
33	Xe7	DRSC12307	1.14e5	1.39e5	1.97e5	1.18e5	12015	inactive
34	sns (sticks and stones)	DRSC06423	6795	6088	9380	7910	1975	inactive
35	sns (sticks and stones)	DRSC07687	1.28e5	1.29e5	1.83e5	1.79e5	10395	inactive
36	sns (sticks and stones)	DRSC07688	2.31e5	1.72e5	2.64e5	2.49e5	15285	inactive
37	sns (sticks and stones)	DRSC07689	1.28e5	1.63e5	1.93e5	1.58e5	14330	inactive
38	sns (sticks and stones)	DRSC07691	1.69e5	1.77e5	1.61e5	1.80e5	15840	inactive
39	sns (sticks and stones)	DRSC07692	27195	21700	25075	24310	5640	inactive
40	snu (snustorr)	DRSC16589	1.84e5	1.67e5	2.53e5	1.78e5	11560	inactive
41	CG10576	DRSC09745	1.49e5	1.33e5	1.27e5	57015	16115	inactive
42	eIF3e (eukaryotic translation initiation factor 3 subunit e)	DRSC11199	22620	19870	17535	16560	810	inactive
43	GNBP-like3 (GNBP-like 3)	DRSC06385	1.15e5	1.09e5	1.18e5	1.23e5	8100	inactive
44	Syx16 (Syntaxin 16)	DRSC20507	1.22e5	1.16e5	1.05e5	57700	9450	inactive
45	Sec23 (Secretory 23)	DRSC12387	1.67e5	1.74e5	1.08e5	1.02e5	12515	inactive
46	CG5612	DRSC15844	1.61e5	1.64e5	2.27e5	2.06e5	14170	inactive
47	Ak2 (Adenylate kinase 2)	DRSC04043	1.51e5	1.80e5	1.48e5	1.45e5	11440	inactive
48	Tsen2 (tRNA splicing endonuclease subunit 2)	DRSC01557	51760	48560	75015	55610	5070	inactive
49	CG2006 + Spase12	DRSC14316	1.05e5	1.13e5	1.54e5	1.33e5	8840	inactive
50	CG12963	DRSC06265	1.05e5	1.09e5	1.28e5	1.24e5	8490	inactive

6 neighbouring records from above, for reference:
no.	predicted target	dsRNA	induced reporter light, run 1, well a	induced reporter light, run 1, well b	control promoter light, run 1, well a	control promoter light, run 1, well b	uninduced reporter light, run 1, well a	call
21	U4-U6-60K (U4-U6 small nuclear riboprotein factor 60K)	DRSC10624	1.18e5	1.08e5	60975	61215	6390	inactive
22	CG30103	DRSC06894	1.54e5	1.06e5	1.56e5	1.67e5	9670	inactive
23	CG6567	DRSC16066	59695	60285	79700	53370	6475	inactive
24	CG33459	DRSC05615	95155	82495	1.29e5	1.25e5	7275	inactive
25	CG15347	DRSC18031	1.31e5	1.43e5	2.55e5	2.36e5	9945	inactive
26	CG4744	DRSC06887	1.36e5	1.42e5	1.56e5	1.56e5	12110	inactive
